According to the supplement of paper PMC8728848:
The list shows a part of the results.

Key:
Assay in all cases: glycan array binding signal (z-score within array); higher = stronger binding
Conditions in all cases: glycan notation: IUPAC condensed, linker removed
[1] = molecular target: Fuc(a1-2)[Gal(a1-3)]Gal(b1-4)GlcNAc(b1-2)Man(a1-3)[Fuc(a1-2)[Gal(a1-3)]Gal(b1-4)GlcNAc(b1-2)Man(a1-6)]Man(b1-4)GlcNAc(b1-4)[Fuc(a1-6)]GlcNAc
Procedure, shortened: (§1)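 The binding signal is a Z-score computed within each array. Data were drawn from 3228 arrays in the Consortium for Functional Glycomics database, restricted to those with a known protein sequence. Scores were averaged over arrays of the same protein sequence at different concentrations or buffers, and over linkers, and negative values can be taken as non-binding.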

[2] = molecular target: Fuc(a1-2)[Gal(a1-3)]Gal(b1-4)GlcNAc(b1-3)GalNAc
Procedure, shortened: as §1

[3] = molecular target: Fuc(a1-2)[Gal(a1-3)]Gal(b1-4)GlcNAc(b1-3)[Fuc(a1-2)[Gal(a1-3)]Gal(b1-4)GlcNAc(b1-6)]GalNAc
Procedure, shortened: as §1

[4] = molecular target: Fuc(a1-2)[Gal(a1-3)]Gal(b1-4)GlcNAc(b1-6)GalNAc
Procedure, shortened: as §1

[5] = molecular target: Fuc(a1-2)[Gal(a1-3)]Gal(b1-4)[Fuc(a1-3)]Glc
Procedure, shortened: as §1

[6] = molecular target: Fuc(a1-2)[Gal(a1-3)]Gal(b1-4)[Fuc(a1-3)]GlcNAc
Procedure, shortened: as §1

[7] = molecular target: Fuc(a1-2)[Gal(a1-3)]Gal(b1-4)[Fuc(a1-3)]GlcNAc(b1-3)GalNAc
Procedure, shortened: as §1

[8] = molecular target: Fuc(a1-2)[Gal(a1-4)]Gal(b1-4)GlcNAc
Procedure, shortened: as §1

[9] = molecular target: Fuc(a1-2)[GalNAc(a1-3)]Gal
Procedure, shortened: as §1

[10] = molecular target: Fuc(a1-2)[GalNAc(a1-3)]Gal(b1-3)GalNAc(a1-3)[Fuc(a1-2)]Gal(b1-4)GlcNAc
Procedure, shortened: as §1

[11] = molecular target: Fuc(a1-2)[GalNAc(a1-3)]Gal(b1-3)GalNAc(b1-3)Gal(a1-4)Gal(b1-4)Glc
Procedure, shortened: as §1

[12] = molecular target: Fuc(a1-2)[GalNAc(a1-3)]Gal(b1-3)GlcNAc
Procedure, shortened: as §1

[13] = molecular target: Fuc(a1-2)[GalNAc(a1-3)]Gal(b1-3)GlcNAc(b1-2)Man(a1-3)[Fuc(a1-2)[GalNAc(a1-3)]Gal(b1-3)GlcNAc(b1-2)Man(a1-6)]Man(b1-4)GlcNAc(b1-4)GlcNAc
Procedure, shortened: as §1

[14] = molecular target: Fuc(a1-2)[GalNAc(a1-3)]Gal(b1-3)GlcNAc(b1-2)Man(a1-3)[Fuc(a1-2)[GalNAc(a1-3)]Gal(b1-3)GlcNAc(b1-2)Man(a1-6)]Man(b1-4)GlcNAc(b1-4)[Fuc(a1-6)]GlcNAc
Procedure, shortened: as §1

[15] = molecular target: Fuc(a1-2)[GalNAc(a1-3)]Gal(b1-3)GlcNAc(b1-3)GalNAc
Procedure, shortened: as §1

[16] = molecular target: Fuc(a1-2)[GalNAc(a1-3)]Gal(b1-3)GlcNAc(b1-6)GalNAc
Procedure, shortened: as §1

[17] = molecular target: Fuc(a1-2)[GalNAc(a1-3)]Gal(b1-4)Glc
Procedure, shortened: as §1

[18] = molecular target: Fuc(a1-2)[GalNAc(a1-3)]Gal(b1-4)GlcNAc
Procedure, shortened: as §1

[19] = molecular target: Fuc(a1-2)[GalNAc(a1-3)]Gal(b1-4)GlcNAc(b1-2)Man
Procedure, shortened: as §1

[20] = molecular target: Fuc(a1-2)[GalNAc(a1-3)]Gal(b1-4)GlcNAc(b1-2)Man(a1-3)[Fuc(a1-2)[GalNAc(a1-3)]Gal(b1-4)GlcNAc(b1-2)Man(a1-6)]Man(b1-4)GlcNAc(b1-4)GlcNAc
Procedure, shortened: as §1

[21] = molecular target: Fuc(a1-2)[GalNAc(a1-3)]Gal(b1-4)GlcNAc(b1-2)Man(a1-3)[Fuc(a1-2)[GalNAc(a1-3)]Gal(b1-4)GlcNAc(b1-2)Man(a1-6)]Man(b1-4)GlcNAc(b1-4)[Fuc(a1-6)]GlcNAc
Procedure, shortened: as §1

[22] = molecular target: Fuc(a1-2)[GalNAc(a1-3)]Gal(b1-4)GlcNAc(b1-3)Gal(b1-4)GlcNAc
Procedure, shortened: as §1

[23] = molecular target: Fuc(a1-2)[GalNAc(a1-3)]Gal(b1-4)GlcNAc(b1-3)Gal(b1-4)GlcNAc(b1-3)Gal(b1-4)GlcNAc
Procedure, shortened: as §1

[24] = molecular target: Fuc(a1-2)[GalNAc(a1-3)]Gal(b1-4)GlcNAc(b1-3)GalNAc
Procedure, shortened: as §1

[25] = molecular target: Fuc(a1-2)[GalNAc(a1-3)]Gal(b1-4)GlcNAc(b1-3)[Fuc(a1-2)[GalNAc(a1-3)]Gal(b1-4)GlcNAc(b1-6)]GalNAc
Procedure, shortened: as §1

[26] = molecular target: Fuc(a1-2)[GalNAc(a1-3)]Gal(b1-4)GlcNAc(b1-6)GalNAc
Procedure, shortened: as §1

[27] = molecular target: Fuc(a1-2)[GalNAc(a1-3)]Gal(b1-4)[Fuc(a1-3)]GlcNAc
Procedure, shortened: as §1

[28] = molecular target: Fuc(a1-2)[GalNAc(a1-3)]Gal(b1-4)[Fuc(a1-3)]GlcNAc(b1-3)GalNAc
Procedure, shortened: as §1

[29] = molecular target: Fuc(a1-2)[GalNAc(a1-4)]Gal(b1-4)GlcNAc
Procedure, shortened: as §1

[30] = molecular target: Fuc(a1-2)[GalNAc(b1-3)]Gal
Procedure, shortened: as §1

B1: FimA (Actinomyces oris) (protein)
chain: MHHHHHHSSGVDLGTENLYFQSNAETPNYGNIKTDATGSLVIHKHLTGGGKDIGTPTGTAQNADDKGPAVEGVVFTAYPITDINLKDPAGWDTISNLSRTGVPDSACANPAAPTLGAHQFGTPKVSPATTKEGLATITEMPVQAYLVCETTTPGDIVQKAKPFVVTIPHPNTAAGADGQWIYDVNVYPKNEAIDVDKTIQAQKLNGYGVGSLIKFPVESTAPTLDAKSFYKYFQLKDTLDERLSEVTATDVSLEGTPLQPTDYKVETKQQTVTVTFTAEGLKKIKAAPGKKVSAVFQGKVTKAGNGAITNRAQVISDTLYAEQPPTPETPPTDPENPPTSDEVISRWGDLSIKKVDTHQQGQTKAGLQGAQFQLYKAKNAYANTCSNEKEGAPIAINGQTTLTTDAQGAIDIKGLFISDSIDGADRDNQVNAMERCYVLVETKAPAGYVLPAGNGAATPVKVKAGEETTDNVTVENTKQSVPGLPLTG
Which results are given for B1?
glycan array binding signal (z-score) [1]: 0.074; glycan array binding signal (z-score) [2]: -0.523; glycan array binding signal (z-score) [3]: -0.46; glycan array binding signal (z-score) [4]: -0.757; glycan array binding signal (z-score) [5]: -0.593; glycan array binding signal (z-score) [6]: -0.589; glycan array binding signal (z-score) [7]: -0.23; glycan array binding signal (z-score) [8]: 5.14; glycan array binding signal (z-score) [9]: -0.675; glycan array binding signal (z-score) [10]: 0.088; glycan array binding signal (z-score) [11]: -0.724; glycan array binding signal (z-score) [12]: -0.442; glycan array binding signal (z-score) [13]: -0.552; glycan array binding signal (z-score) [14]: -0.915; glycan array binding signal (z-score) [15]: -0.36; glycan array binding signal (z-score) [16]: -0.203; glycan array binding signal (z-score) [17]: -0.796; glycan array binding signal (z-score) [18]: -0.742; glycan array binding signal (z-score) [19]: -0.624; glycan array binding signal (z-score) [20]: 2.33; glycan array binding signal (z-score) [21]: -0.572; glycan array binding signal (z-score) [22]: -0.04; glycan array binding signal (z-score) [23]: -0.194; glycan array binding signal (z-score) [24]: -0.408; glycan array binding signal (z-score) [25]: -0.54; glycan array binding signal (z-score) [26]: -0.298; glycan array binding signal (z-score) [27]: -1.02; glycan array binding signal (z-score) [28]: -0.449; glycan array binding signal (z-score) [29]: 1.81; glycan array binding signal (z-score) [30]: -0.194
